Source: patent publication US20150219624A1, “METHODS FOR IDENTIFYING ANTI-CANCER COMPOUNDS” (MEMORIAL SLOAN KETTERING CANCER CENTER, priority 2013, published 2015)
The name of at least one read-out is uncertain.

Test system: small cell lung cancer lines
Test: Silvestrol IC50 in small cell lung cancer lines
Type: cell-based
Conditions: NCI-H211, NCI-H446, NCI-H2171, NCI-H82, NCI-H526, NCI-H196 and NCI-H889

SMILES: COC(=O)[C@H]1[C@@H](O)[C@@]2(O)c3c(OC)cc(O[C@@H]4O[C@@H]([C@H](O)CO)CO[C@H]4OC)cc3O[C@@]2(c2ccc(OC)cc2)[C@@H]1c1ccccc1 [silvestrol]
- IC50: low IC50s
